Assay results taken from article PMC5074804.
No constants are given. Whether binding was seen depends on the method and setting. In cells and extracts the contact can be indirect. Some results given as binding are weak or reduced against the parent protein; the word gives no strength.

The chains behind the UniProt entries cited, without tags or fusion partners.
UniProt P10085: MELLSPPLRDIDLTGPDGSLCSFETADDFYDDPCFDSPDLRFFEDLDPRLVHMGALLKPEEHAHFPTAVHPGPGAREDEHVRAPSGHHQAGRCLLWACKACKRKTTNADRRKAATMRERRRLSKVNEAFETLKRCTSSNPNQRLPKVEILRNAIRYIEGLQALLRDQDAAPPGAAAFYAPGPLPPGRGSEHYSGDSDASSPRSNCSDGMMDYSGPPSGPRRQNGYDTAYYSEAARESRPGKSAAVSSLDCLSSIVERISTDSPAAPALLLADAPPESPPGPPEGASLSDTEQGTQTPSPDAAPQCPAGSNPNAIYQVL
UniProt Q9Z0Z7: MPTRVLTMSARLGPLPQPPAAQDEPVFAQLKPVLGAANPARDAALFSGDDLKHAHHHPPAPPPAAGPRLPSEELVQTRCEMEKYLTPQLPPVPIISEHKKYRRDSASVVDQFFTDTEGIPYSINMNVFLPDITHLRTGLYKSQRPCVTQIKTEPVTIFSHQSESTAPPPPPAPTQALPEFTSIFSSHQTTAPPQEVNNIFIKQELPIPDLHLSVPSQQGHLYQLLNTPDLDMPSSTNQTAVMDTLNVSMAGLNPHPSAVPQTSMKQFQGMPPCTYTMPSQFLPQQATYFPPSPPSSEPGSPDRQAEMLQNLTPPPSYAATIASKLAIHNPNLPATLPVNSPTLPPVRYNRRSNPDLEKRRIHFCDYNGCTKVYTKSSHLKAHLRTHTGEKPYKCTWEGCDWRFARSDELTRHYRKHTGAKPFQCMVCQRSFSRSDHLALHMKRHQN

Biological target: MyoD (mouse (endogenous in C2C12)) (UniProt P10085)
Experiment: co-IP; whole cell extract (600 µg protein) of C2C12 cells differentiated for 5 days; immunoprecipitated with 2 µg anti-MyoD or anti-Mef2 antibody overnight at 4°C, protein G Dynabeads; washed 6 times with 10 mM Tris-HCl, 100 mM NaCl, 1 mM DTT, 0.5% NP40, 0.5% TritonX-100; compared to 1% input and control without primary antibody

Krüppel-like factor 5 (from UniProt Q9Z0Z7 1-446)
binding: binds
